Data as given in PubChem BioAssay AID1224830 (NIAID, 2016)
Test: 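Genes whose knock-down alters the TNF-alpha reporter response to LPS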 (primary screen). System: human THP-1 monocytic leukaemia cells, TNF dual-luciferase reporter clone, PMA-differentiated to macrophage-like cells. Reagents: siRNA pool against human genes, 50 nM. Duration: LPS for 4 h, given about 3 days after siRNA transfection. Treatment: bacterial LPS (TLR4 ligand), 10 ng/ml. Detection: 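TNF firefly reporter luminescence divided by renilla, normalised to the plate median, then turned into a robust z-score for each replicate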. Direction: TNF reporter robust z-score: higher = stronger TNF reporter response to LPS. Call rule: 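Each well counts as active if its z-score is over 2.8 or under -1.5; controls are left without a call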.
The whole screen tested about 18,000 reagents; this is a part drawn at random. Of all reagents, about 2,900 (16%) got an active call. 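Calls are made per well; low scores hint the gene aids the LPS response, high scores that it dampens it.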 Unmarked entries are inactive. Repeated entries: four replicate wells of each siRNA pool. No sequences are given here.

For PGLS, what was measured?
TNF reporter robust z-score: 0

With PGLS, what does the deposit list?
TNF reporter robust z-score: 1.92

For PGLS, how do the results read?
TNF reporter robust z-score: 0.7

What is on record for PGLS?
TNF reporter robust z-score: 0.27

Which result is listed for LRTOMT?
TNF reporter robust z-score: 0.33

For LRTOMT, what was measured?
TNF reporter robust z-score: 1

With LRTOMT, how do the results read?
TNF reporter robust z-score: 0.56

What is on record for LRTOMT?
TNF reporter robust z-score: 1.17

How did the screen score PTP4A2?
TNF reporter robust z-score: 1.53

What is on record for PTP4A2?
TNF reporter robust z-score: 2

For PTP4A2, what was measured?
TNF reporter robust z-score: -0.75

With PTP4A2, what was measured?
TNF reporter robust z-score: 0.61

For AKR1C6P, what does the deposit list?
TNF reporter robust z-score: -0.91

How did the screen score AKR1C6P?
TNF reporter robust z-score: 0.27

Which result is listed for AKR1C6P?
TNF reporter robust z-score: -0.15

What is on record for AKR1C6P?
TNF reporter robust z-score: 0.73

Ordered by “TNF reporter robust z-score” (lowest first): 7 of the entries above.
PGLS | TNF reporter robust z-score = 0.27
LRTOMT | TNF reporter robust z-score = 0.33
LRTOMT | TNF reporter robust z-score = 0.56
LRTOMT | TNF reporter robust z-score = 1
LRTOMT | TNF reporter robust z-score = 1.17
PTP4A2 | TNF reporter robust z-score = 1.53
PTP4A2 | TNF reporter robust z-score = 2

The results go on.
How did the screen score PCDHB15?
TNF reporter robust z-score: -0.53

For PCDHB15, what was measured?
TNF reporter robust z-score: 0.08

With PCDHB15, what was measured?
TNF reporter robust z-score: 0.2

For PCDHB15, what does the deposit list?
TNF reporter robust z-score: 0.01

What is on record for CSNK1G3?
TNF reporter robust z-score: 1.63

What did the screen give for CSNK1G3?
TNF reporter robust z-score: 0.77

What is on record for CSNK1G3?
TNF reporter robust z-score: 1.95

What did the screen give for CSNK1G3?
TNF reporter robust z-score: 1.37

What is on record for SHISA4?
TNF reporter robust z-score: -1.17

What is on record for SHISA4?
TNF reporter robust z-score: -1.19

For SHISA4, what does the deposit list?
TNF reporter robust z-score: -0.86

What is on record for SHISA4?
TNF reporter robust z-score: -1.25

What is on record for POLA2?
TNF reporter robust z-score: 0.14

With POLA2, what does the deposit list?
TNF reporter robust z-score: 0.01

For POLA2, how do the results read?
TNF reporter robust z-score: -0.27

For POLA2, what was measured?
TNF reporter robust z-score: 0.24

For PAQR7, what was measured?
TNF reporter robust z-score: 1.46

Which result is listed for PAQR7?
TNF reporter robust z-score: 3.33 (active)

With PAQR7, what does the deposit list?
TNF reporter robust z-score: 1.78

With PAQR7, how do the results read?
TNF reporter robust z-score: 2.99 (active)

With EIF4E, what does the deposit list?
TNF reporter robust z-score: -0.58

With EIF4E, how do the results read?
TNF reporter robust z-score: -0.65

How did the screen score EIF4E?
TNF reporter robust z-score: -1.05

Which result is listed for EIF4E?
TNF reporter robust z-score: -0.36

With TMC8, what was measured?
TNF reporter robust z-score: -0.57

What did the screen give for TMC8?
TNF reporter robust z-score: -0.52

With TMC8, what was measured?
TNF reporter robust z-score: -0.9

Which result is listed for TMC8?
TNF reporter robust z-score: -0.23

For RPL39L, what was measured?
TNF reporter robust z-score: -0.89

With RPL39L, what was measured?
TNF reporter robust z-score: -0.15

How did the screen score RPL39L?
TNF reporter robust z-score: -0.06

For RPL39L, what was measured?
TNF reporter robust z-score: 0.27
